The text below walks through data of patent publication US6245742A (Pharmacia & Upjohn S.p.A., priority 1996, dated 2001).

One data set in a line: general procedure: Fmoc solid-phase peptide synthesis; Rink MBHA; TBTU/1-hydroxybenzotriazole/DIEA in NMP; Pfp esters. The note with it: whole synthesis, scale 0.5 mmol, polyhydrated polytrifluoroacetates.
On to “Ac--Phe(p--CH2 PO3 H2)--Val--Asn--Val--NH2”, for which the crude mass came to 270 mg.

Another data set can be described thus: general procedure: Fmoc solid-phase peptide synthesis; Knorr amide resin (0.45 mmol/g); also Rink MBHA, DOD, Wang, PEG-PS HMPA resin; TBTU/1-hydroxybenzotriazole/DIEA in NMP; Pfp esters. The conditions noted are these: whole synthesis, 220 nm, scale of the general procedure 0.25 mmol, polyhydrated polytrifluoroacetates.
“6-biotinamido-hexanoyl--Gly--Gly--Gly--Gly--Gly--Ile--Gly--Glu--Bis--Tyr (PO3 B)--Val--His--Val--Asn--Ala--Thr--Tyr(PO3 H)--Val--Asn--Val--Lys--OH”: the “final HPLC purity” value came out at 91.5%.

The data set is the same for the next values; noted with them: whole synthesis, HPLC peak relative integration at 215-220 nm, scale of the general procedure 0.25 mmol, polyhydrated polytrifluoroacetates.
For Ac--Phe (CH2 SO3 H)--Val--Asn--Val--NH2, the “final HPLC purity” value was 97.0%.
Consider “Ac--Phe(p--CH2 PO3 H2)--Val--Asn--Val--NH2”, for which the “final HPLC purity” value came to 98.0%.
“Ac--Tyr (PO3 H2)--Ile--Asn--Gln--Ser--NH2”: the “final HPLC purity” value was found to be 99.3%.
With Ac--Phe--Val--Asn--Val--OH, the “final HPLC purity” value is listed as 97.6%.
In the case of “Ac--Tyr (PO3 H2) --Ile--Asn--Ile--Lys--NH2”, the “final HPLC purity” value stood at 93.0%.
For the substance “Ac--Tyr(PO3 H2)--Val--Asn--Val--Gln--NH2”, the “final HPLC purity” value is 96.5%.
Consider “6-biotinamido-hexanoyl-Tyr (PO3 H2)--Val--Asn--Val--NH2”, for which the “final HPLC purity” value is listed as 98.8%.
Take “Ac--Phe (CH2 PO3 H2)--Val--Asn--Val--Lys--NH2”: the “final HPLC purity” value was found to be 99.1%.
Regarding “Ac--Tyr (PO3 H2)--Val--Asn--Ile--Glu--NH2”, the “final HPLC purity” value was 99.0%.
In the case of “Ac--Tyr (PO3 H2)--Val--Asn--Val--Ser--NH2”, the “final HPLC purity” value turned out to be 99.1%.
With Ac--Tyr (PO3 H2)--Val--Asn--Val--NH2, the “final HPLC purity” value came out at 99.9%.
For Ac--Tyr(PO3 Et2)--Val--Asn--Val--NH2, the “final HPLC purity” value stood at 90.0%.
For the substance H--Tyr (PO3 H2)--Val--Asn--Val--Lys--OH, the “final HPLC purity” value was found to be 99.0%.
On to Ac--Tyr (PO3 Me2)--Val--Asn--Val--NH2, for which the “final HPLC purity” value was 97.0%.
“Ac--Tyr (PO3 H2)--Val--Asn--Val--Lys--NH2”: the “final HPLC purity” value is 96.4%.
In the case of “Ac--Tyr (PO3 H2)--Val--Asn--Val--Lys (Ac)--NH2”, the “final HPLC purity” value is 98.9%.
The same measure, in the same setting: as for Ac--Tyr(PO3 HMe)--Val--Asn--Val--NH2, the figure is 98.0%.

Staying with this data set, now noted: whole synthesis, capillary electrophoresis, scale of the general procedure 0.25 mmol, polyhydrated polytrifluoroacetates.
Consider “C6 H11 --CE2 --CO--Tyr(PO3 H2)--Val--Asn--Val--NH2”, for which the “final purity (method not given)” value came to 75%.
In the case of “CH3 --(CH2)12 --CO--Tyr (PO3 H2)--Val--Asn--Val--NE2”, the “final purity (method not given)” value is 95%.
For “CH3 --(CH2)6 --CO--Tyr (PO3 H2)--Val--Asn--Val--NH2”, the “final purity (method not given)” value amounted to 72%.
As to “CH3 --(CH2)12 --CO--Gly--Gly--Tyr(PO3 H2)--Val--Asn--Val--NH2”, the “final purity (method not given)” value came out at 95%.

The nature of a further data set: general procedure: Fmoc solid-phase peptide synthesis; Wang; TBTU/1-hydroxybenzotriazole/DIEA in NMP; Pfp esters. The note with it: whole synthesis, HPLC peak relative integration at 215-220 nm, scale of the general procedure 0.25 mmol, polyhydrated polytrifluoroacetates.
As for Ac--Tyr (PO3 H2)--Val--Asn--Val--OH, the “final HPLC purity” value was determined as 99.3%.

The next data set in a line: peptide synthesis. The note with it: whole synthesis, polyhydrated polytrifluoroacetates.
As to “6-biotinamido-hexanoyl--Gly--Gly--Gly--Gly--Gly--Ile--Gly--Glu--His--Tyr-- Val--His--Val--Asn--Ala--Thr--Tyr(PO3 H)--Val--Asn--Val--Lys--OH”, the “final HPLC purity” value is given as 91.8%.

The next data set can be described thus: general procedure: Fmoc solid-phase peptide synthesis; Knorr resin; TBTU/1-hydroxybenzotriazole/DIEA in NMP; Pfp esters. The conditions noted are these: whole synthesis, scale 0.25 mmol, polyhydrated polytrifluoroacetates.
In turn, Ac--Tyr (PO3 H2)--Val--Asn--Val--NH2 registered an isolated mass of 64 mg.
